Source: the supplement of paper PMC10849652
The list shows a part of the results.

The chains behind the UniProt entries cited, without tags or fusion partners. Where a name states a change or a piece, a line headed by the entry shows the natural chain unless it says otherwise.
UniProt Q16342: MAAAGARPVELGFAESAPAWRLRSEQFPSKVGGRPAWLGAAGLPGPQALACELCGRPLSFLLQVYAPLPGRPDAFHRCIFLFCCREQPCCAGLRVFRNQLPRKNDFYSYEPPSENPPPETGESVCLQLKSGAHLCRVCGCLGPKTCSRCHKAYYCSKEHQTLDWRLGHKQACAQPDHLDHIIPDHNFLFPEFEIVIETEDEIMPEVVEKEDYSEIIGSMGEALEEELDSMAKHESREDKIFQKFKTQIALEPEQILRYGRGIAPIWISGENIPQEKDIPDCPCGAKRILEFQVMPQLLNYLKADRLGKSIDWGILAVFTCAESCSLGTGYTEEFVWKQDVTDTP
UniProt Q8WUM4: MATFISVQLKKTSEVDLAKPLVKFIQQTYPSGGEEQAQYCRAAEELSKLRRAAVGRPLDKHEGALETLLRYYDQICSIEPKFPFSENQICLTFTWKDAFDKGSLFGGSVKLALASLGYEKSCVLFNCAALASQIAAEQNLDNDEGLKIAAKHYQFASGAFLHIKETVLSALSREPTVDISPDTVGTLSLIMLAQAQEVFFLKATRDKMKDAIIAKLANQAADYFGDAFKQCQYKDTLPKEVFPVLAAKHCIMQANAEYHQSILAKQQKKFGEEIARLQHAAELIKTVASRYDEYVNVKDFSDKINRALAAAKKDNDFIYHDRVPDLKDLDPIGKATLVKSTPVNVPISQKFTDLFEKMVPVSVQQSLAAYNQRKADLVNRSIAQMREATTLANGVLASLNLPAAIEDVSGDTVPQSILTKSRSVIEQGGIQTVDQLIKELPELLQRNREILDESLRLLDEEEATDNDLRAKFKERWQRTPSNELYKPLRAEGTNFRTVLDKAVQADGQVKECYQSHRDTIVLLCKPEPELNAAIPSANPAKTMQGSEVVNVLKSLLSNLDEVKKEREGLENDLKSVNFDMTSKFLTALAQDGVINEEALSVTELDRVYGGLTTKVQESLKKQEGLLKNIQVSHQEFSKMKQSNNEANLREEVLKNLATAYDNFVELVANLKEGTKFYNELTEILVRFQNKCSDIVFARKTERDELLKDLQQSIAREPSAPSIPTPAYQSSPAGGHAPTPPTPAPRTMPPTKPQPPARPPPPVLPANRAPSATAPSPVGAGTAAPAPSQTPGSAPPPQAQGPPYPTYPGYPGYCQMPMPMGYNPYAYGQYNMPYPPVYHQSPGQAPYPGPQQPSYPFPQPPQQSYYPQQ
UniProt Q9H4Z3: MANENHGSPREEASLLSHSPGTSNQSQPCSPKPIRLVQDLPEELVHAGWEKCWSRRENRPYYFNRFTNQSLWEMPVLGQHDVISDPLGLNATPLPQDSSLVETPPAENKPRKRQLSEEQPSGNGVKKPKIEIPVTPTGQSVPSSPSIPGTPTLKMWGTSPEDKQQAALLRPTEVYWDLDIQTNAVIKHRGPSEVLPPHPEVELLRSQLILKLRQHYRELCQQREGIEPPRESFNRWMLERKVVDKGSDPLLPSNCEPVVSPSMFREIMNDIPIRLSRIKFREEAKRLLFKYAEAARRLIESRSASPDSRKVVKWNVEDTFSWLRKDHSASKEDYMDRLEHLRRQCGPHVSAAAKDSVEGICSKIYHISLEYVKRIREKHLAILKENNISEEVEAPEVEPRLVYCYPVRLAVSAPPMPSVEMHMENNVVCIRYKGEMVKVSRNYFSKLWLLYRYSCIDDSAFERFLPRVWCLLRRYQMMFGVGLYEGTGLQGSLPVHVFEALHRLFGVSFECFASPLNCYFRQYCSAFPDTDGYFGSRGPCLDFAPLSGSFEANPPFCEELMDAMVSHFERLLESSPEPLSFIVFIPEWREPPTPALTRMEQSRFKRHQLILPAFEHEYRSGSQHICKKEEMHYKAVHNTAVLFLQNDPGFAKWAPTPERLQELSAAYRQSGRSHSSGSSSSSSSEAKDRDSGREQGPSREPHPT
UniProt P49585: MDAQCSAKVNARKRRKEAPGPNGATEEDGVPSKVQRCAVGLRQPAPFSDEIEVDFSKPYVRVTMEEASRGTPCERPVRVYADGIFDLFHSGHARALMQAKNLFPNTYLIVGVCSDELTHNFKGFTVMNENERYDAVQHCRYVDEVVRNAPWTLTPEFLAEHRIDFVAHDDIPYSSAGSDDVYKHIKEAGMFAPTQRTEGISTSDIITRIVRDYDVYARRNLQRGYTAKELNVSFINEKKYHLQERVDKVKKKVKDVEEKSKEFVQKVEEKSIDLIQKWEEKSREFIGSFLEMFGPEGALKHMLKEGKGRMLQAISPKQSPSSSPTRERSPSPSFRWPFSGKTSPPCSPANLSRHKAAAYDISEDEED
UniProt P17858: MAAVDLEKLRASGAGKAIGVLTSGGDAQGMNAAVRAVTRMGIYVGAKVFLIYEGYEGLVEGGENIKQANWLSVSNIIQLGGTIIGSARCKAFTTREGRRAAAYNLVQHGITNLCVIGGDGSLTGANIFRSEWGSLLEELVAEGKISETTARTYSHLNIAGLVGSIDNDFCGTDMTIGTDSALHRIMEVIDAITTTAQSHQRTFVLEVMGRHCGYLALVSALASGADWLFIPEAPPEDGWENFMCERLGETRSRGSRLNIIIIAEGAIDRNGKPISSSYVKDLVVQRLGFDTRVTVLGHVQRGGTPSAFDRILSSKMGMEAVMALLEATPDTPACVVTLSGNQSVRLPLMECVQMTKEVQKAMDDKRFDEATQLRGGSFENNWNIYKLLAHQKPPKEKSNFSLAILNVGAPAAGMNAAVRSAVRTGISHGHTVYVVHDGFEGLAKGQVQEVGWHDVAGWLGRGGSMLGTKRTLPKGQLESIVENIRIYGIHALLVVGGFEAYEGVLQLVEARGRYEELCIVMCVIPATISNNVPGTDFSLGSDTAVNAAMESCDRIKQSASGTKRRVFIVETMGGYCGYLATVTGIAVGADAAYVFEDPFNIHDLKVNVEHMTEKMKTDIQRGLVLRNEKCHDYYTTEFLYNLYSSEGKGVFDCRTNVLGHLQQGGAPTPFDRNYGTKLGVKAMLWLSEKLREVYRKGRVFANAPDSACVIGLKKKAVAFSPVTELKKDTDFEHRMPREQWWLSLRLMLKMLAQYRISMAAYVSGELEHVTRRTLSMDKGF
UniProt Q92968: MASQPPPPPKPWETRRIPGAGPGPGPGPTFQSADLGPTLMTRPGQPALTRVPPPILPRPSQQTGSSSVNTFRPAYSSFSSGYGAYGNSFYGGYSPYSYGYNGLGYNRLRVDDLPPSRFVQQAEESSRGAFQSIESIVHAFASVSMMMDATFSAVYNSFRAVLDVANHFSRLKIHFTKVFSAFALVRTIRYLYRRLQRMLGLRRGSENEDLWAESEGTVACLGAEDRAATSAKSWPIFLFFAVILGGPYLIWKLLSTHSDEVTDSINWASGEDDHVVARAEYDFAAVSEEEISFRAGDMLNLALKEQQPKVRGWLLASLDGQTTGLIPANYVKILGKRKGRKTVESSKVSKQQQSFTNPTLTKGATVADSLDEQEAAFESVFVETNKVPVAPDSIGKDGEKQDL
UniProt O95453: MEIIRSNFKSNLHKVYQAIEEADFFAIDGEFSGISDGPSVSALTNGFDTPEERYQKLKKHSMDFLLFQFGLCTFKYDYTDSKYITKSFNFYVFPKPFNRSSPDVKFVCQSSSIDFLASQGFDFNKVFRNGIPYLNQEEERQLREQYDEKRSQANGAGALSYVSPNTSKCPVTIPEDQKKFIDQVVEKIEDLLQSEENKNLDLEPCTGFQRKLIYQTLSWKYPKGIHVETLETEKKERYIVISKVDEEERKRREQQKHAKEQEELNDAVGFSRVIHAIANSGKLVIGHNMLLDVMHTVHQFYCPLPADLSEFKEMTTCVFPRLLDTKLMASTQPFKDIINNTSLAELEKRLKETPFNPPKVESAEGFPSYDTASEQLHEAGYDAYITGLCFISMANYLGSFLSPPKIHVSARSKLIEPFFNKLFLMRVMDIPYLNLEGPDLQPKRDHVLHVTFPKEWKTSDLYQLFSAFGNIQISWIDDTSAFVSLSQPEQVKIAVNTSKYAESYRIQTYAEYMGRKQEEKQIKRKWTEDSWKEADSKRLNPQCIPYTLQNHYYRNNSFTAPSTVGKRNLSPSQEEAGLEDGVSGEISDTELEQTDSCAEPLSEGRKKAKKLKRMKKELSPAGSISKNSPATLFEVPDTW
UniProt Q9BUL8: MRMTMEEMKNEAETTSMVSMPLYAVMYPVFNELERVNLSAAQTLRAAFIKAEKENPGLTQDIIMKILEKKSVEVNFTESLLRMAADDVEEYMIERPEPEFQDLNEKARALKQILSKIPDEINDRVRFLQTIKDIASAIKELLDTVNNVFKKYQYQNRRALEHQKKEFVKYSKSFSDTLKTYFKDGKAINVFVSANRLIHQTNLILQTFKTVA
UniProt Q9HBH1: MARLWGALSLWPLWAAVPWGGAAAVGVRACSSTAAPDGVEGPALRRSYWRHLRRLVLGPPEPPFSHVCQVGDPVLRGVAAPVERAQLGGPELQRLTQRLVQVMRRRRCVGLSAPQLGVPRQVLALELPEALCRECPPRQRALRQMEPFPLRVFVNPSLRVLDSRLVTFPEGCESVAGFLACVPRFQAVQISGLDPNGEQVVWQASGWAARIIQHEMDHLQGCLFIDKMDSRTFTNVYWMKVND
UniProt Q6ZW49, whole entry, looked up: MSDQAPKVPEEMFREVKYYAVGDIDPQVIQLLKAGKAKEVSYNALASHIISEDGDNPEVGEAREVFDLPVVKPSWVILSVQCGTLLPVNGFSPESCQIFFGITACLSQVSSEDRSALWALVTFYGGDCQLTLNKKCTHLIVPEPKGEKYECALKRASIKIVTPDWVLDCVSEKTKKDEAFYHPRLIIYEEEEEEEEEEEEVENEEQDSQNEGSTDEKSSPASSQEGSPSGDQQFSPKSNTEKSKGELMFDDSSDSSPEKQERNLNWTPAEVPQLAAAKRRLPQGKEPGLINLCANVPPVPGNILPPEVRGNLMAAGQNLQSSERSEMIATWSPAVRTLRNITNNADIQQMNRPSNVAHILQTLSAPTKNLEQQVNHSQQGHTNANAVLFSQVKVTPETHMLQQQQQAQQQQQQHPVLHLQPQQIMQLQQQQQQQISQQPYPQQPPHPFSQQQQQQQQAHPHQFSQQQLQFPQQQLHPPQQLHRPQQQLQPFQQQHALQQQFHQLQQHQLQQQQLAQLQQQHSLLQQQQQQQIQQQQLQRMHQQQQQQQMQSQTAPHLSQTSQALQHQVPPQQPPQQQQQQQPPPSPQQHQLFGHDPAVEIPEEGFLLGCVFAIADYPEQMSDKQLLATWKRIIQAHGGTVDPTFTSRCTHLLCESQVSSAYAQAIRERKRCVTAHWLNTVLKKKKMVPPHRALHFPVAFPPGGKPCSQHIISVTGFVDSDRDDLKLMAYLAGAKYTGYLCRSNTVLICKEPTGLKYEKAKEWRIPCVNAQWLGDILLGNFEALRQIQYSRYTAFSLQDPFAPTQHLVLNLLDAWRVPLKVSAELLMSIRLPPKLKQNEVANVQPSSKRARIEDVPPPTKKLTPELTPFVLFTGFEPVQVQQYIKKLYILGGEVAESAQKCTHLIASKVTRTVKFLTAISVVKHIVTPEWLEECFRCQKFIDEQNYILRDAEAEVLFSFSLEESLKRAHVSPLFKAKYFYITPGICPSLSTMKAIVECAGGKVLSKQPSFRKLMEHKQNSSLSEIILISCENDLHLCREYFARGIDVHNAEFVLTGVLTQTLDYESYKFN
UniProt Q6L8Q7: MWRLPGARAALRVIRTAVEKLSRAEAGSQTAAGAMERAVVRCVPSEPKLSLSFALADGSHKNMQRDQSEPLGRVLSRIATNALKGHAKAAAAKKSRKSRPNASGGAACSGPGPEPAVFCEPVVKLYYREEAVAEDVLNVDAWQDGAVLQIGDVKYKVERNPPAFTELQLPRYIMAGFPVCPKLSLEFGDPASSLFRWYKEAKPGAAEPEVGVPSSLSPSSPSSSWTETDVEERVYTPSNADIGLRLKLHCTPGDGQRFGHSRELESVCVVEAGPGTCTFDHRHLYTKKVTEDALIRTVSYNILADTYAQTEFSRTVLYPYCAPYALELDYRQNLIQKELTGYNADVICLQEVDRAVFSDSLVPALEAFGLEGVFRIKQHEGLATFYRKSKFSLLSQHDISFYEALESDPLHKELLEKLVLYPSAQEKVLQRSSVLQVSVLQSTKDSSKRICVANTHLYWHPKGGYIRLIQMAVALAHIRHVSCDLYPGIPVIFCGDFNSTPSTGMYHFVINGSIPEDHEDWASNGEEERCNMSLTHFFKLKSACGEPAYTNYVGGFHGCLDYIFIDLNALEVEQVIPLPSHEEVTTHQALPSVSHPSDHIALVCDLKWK
UniProt Q8N5Y8: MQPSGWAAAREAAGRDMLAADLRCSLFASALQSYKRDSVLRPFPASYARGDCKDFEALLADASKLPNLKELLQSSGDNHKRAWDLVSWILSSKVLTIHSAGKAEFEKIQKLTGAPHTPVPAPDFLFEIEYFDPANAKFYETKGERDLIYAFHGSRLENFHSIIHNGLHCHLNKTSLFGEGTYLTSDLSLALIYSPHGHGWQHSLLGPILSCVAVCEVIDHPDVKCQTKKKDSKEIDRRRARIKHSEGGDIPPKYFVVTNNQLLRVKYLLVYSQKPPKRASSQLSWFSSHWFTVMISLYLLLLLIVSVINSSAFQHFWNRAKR

These targets were tested with CC(C)(C)Cn1c(N)nc2ccc(-c3[nH]c(C(C)(C)C)nc3-c3ccc(F)cc3)nc21 [ralimetinib] (assay: log2 fold change, soluble protein after heating vs DMSO (PISA); higher = thermal stabilisation; K562 lysate, 10 uM; active = over 0.2 and 3.5 SD of the protein, either way, in both replicates (recomputed)).
Procedure, shortened: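 Pellets of K562 cells were dounce-homogenised in PBS pH 7.4 with 1 mM MgCl2, and the crude extract was held at 1 mg/mL protein for a 30 min treatment with 10 μM compound. Aliquots were heated for 3 min over 48°C-58°C and pooled before NP-40 was added to 0.5% at 4°C. The supernatant from 21,000xg for 90 min was quantified by TMTpro 16plex LC-MS/MS with channel sums equalised. Values are reported from duplicates as log-two fold change in thermal stability relative to solvent controls.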

log2 fold change, inactive:
PDCD2 (UniProt Q16342) 0
PGAM1 (UniProt P18669) 0.003
PDCD6IP isoform 2 (UniProt Q8WUM4) 0.003
PC (UniProt P11498) 0.016
PCBP2 isoform 3 (UniProt Q15366) 0.021
PCIF1 (UniProt Q9H4Z3) 0.091
PFDN6 (UniProt O15212) -0.001
PCYT1A (UniProt P49585) 0.01
PCBP3 (UniProt P57721) -0.005
PDS5B (UniProt Q9NTI5) 0.023
PEBP1 (UniProt P30086) -0.004
PAXX (UniProt Q9BUH6) -0.036
PFDN5 (UniProt Q99471) -0.007
PGAM5 (UniProt Q96HS1) 0.015
PEX11B (UniProt O96011) 0.007
PFKL isoform 2 (UniProt P17858) -0.002
PEPD (UniProt P12955) -0.009
PEX13 (UniProt Q92968) -0.028
PCBD1 (UniProt P61457) -0.029
PARN (UniProt O95453) -0.007
PARP2 (UniProt Q9UGN5) -0.01
PELP1 (UniProt Q8IZL8) 0.039
PDCD10 (UniProt Q9BUL8) 0
PDXDC1 (UniProt Q6P996) 0.071
PDCL3 (UniProt Q9H2J4) -0.009
PDF (UniProt Q9HBH1) -0.014
PAXIP1 (UniProt Q6ZW49) 0.029
PARP14 (UniProt Q460N5) -0.03
PDXP (UniProt Q96GD0) 0.006
PDE12 (UniProt Q6L8Q7) 0
PARP16 isoform 3 (UniProt Q8N5Y8) 0.019
PFAS (UniProt O15067) 0.03
PDPR (UniProt Q8NCN5) -0.049

Reprinted at random: 2 entries already listed, in no set order.
log2 fold change, inactive:
PFDN6 (UniProt O15212) -0.001
PELP1 (UniProt Q8IZL8) 0.039
